Reference: patent US20190185531A1
No constants are given. Whether binding was seen depends on the method and setting. Some binding calls cover weakened binding; strength is not graded here. Tags and fused reporters may be left off the sequences shown.

Target: T1, Bfl-1 C55S (cysteine-to-serine mutant) (human) (UniProt Q16548)
T1 sequence (looked up): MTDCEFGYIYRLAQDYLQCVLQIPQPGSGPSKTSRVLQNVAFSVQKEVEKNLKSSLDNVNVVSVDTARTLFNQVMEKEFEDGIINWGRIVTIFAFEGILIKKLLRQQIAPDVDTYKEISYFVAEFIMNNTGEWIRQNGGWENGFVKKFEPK
Experiment: yeast surface display, flow cytometry

B1: yeast-displayed Puma-BH3 (residues 132-172 of human Puma fused to Aga2p) (peptide, not shown: large carriers; small tags and cut ends)
chain: GGGGSGGGGSGGGGSQWAREIGAQLRRMADDLNAQYERRRQEEQQRHRPSPWRVLY
For B1, the binding was “binds”.
